Assay results published in patent US20070178095A1.
These are yes or no findings as the source states them, for the method shown. Some binding calls cover weakened binding; strength is not graded here.

T1: recombinant mouse myostatin (R&D systems, Cat. #788-G8/CF, carrier-free) (mouse) (UniProt O08689)
T1 sequence (looked up): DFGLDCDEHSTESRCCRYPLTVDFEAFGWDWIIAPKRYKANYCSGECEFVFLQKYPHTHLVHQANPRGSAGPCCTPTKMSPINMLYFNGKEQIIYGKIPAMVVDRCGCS

T2: peptide immunogen … (human)
T2 sequence (peptide): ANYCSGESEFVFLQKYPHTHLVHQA


Columns and labels:
[1] = target: T1, recombinant mouse myostatin (R&D systems, Cat. #788-G8/CF, carrier-free) (mouse); assay: ELISA, growth factor coated at 10 ug/ml, Fab at 10 ug/ml
[2] = target: T1, recombinant mouse myostatin (R&D systems, Cat. #788-G8/CF, carrier-free) (mouse); assay: ELISA, myostatin coated at 1 ug/ml, Fab 0.016-10 ug/ml
[3] = target: T2, peptide immunogen … (human); assay: ELISA, peptide coated at 2 ug/ml, Fab 0.016-10 ug/ml

Row | binding [1] | binding [2] | binding [3] | Binder
1 | binds | binds | binds | Fab 7 (Fab, V domains shown) VH: QVTLKSGPGILQSSQTLTLTCSLSGFSLTTSGMIVSWIRQSSGRGLEWLAHIYWDDDKRYNPSLRNRLTISKDTLRNQVFLWISSVGTADTATYYCARRAITTVIGGGTMDYWGQGTSVTVSS VL: QIVLTQSPAIMSASPGEKVTMTCSASSSISYMHWYQQKPGTSPKRWIYDTSKLASGVPARFSGSGSGTSYSLTISSMEAEDAATYYCQQWYSNPLTFGAGTKLELKR
2 | – | – | binds | Fab 9 (Fab, V domains shown) VH: QVTLKESGPGILQSSQTLSLTCSVSGFSLSTSGMSVSWIRQPSGKGLEWLAHIYWDDDKRYNPSLKSRLTISKDTSRNQVFLKITSVDTADTATYYCARRAITTVLGGGTMDYWGQGTSVTVSS VL: QIVLTQSPAIMSASPGEKVTMTCSASSSVSYMHWYQQKSGTSPKRWIYDTSKLASGVPVRFSGSGSGTSYSLTISSMEAEDAATYYCQQWSRNPLTFGAGTKLELKR
